In US20210388319A1, “EXPANSION OF HEMATOPOIETIC STEM CELLS” (Mesoblast International Sarl, priority 2018, published 2021):
Some entries share one result that the patent states for a list of compounds. For at least one compound, name, drawing or mass did not settle the structure.

System: CB CD34+ cells (cord blood derived CD34+ HSCs)
Test: Co-culture of cord blood CD34+ cells with MPCs and small molecules, 4-colour flow cytometric analysis
Type: cell-based, human
Conditions: 10 day culture with SFT, SR-1 and UM171 in combination, in the absence of MPCs (FIG. 9)
Experimental: • Cells: CB CD34+ (Stem Cell Technologies) • Medium: StemSpan SFEM (StemCell Technologies) supplemented with: • Human low density lipoprotein (Stem Cell Technologies) 10 μg/ml • Growth Factors (‘SFT’): • rHu-SCF 100 ng/ml • rHu-FLT3Ligand 100 ng/ml • rHu-TPO 50 ng/ml • (All recombinant cytokines are from R&D Systems) • Small Molecules: • SR1 (500 nM); UM171 (35 nM); Trichostatin A (TSA, 50 nM); Valproic Acid (VPA, 500 μM) (all from Stem Cell Technologies) • Assay conditions: • Day −1 MPC (MCBCC006) plated at 50,000/well in 2×24-well plates in Alpha-MEM/10% FBS • Day 0 10,000 CD34+ cells per well plated into each well of two 24 well plates. MPC containing wells were first washed to remove FBS medium. • The remaining CD34+ cells were cultured at the same concentration in a T-25 flask in StemSpan/SFT/SR-1+ UM171. […]
A 4-colour flow cytometric analysis was performed to allow identification and quantitation of CD34+ cells and relevant subpopulations including candidate hematopoietic stem cells (HSC) according to the phenotype CD34+CD45RA− CD90+CD49f+ described for cord blood (Notta et al., (2011) Science 333: 218-221). […]

## CC(C)n1cnc2c(NCCc3ccc(O)cc3)nc(-c3csc4ccccc34)nc21 [SR-1]
  number of CD34+CD45RA− CD90+CD49f+ cells: less than 800 cells
